Results published in article PMC4960319.
Changes are numbered by the printed parent chain. Names may count otherwise. No constants are given. Whether binding was seen depends on the method and setting. Some binding calls cover weakened binding; strength is not graded here. For some assays here: Where a sequence is shown, tags or fusion partners need not be part of it. Blank lines part the entries; values can stand above or below the binder they belong to.

By UniProt entry, the sequences of proteins in these tests, tags left out. Where a name states a change or a piece, a line headed by the entry shows the natural chain unless it says otherwise. Chains listed by the source or under a name are the forms on record and can include a tag or linker. Residues count along the entry.
UniProt Q7AKG9: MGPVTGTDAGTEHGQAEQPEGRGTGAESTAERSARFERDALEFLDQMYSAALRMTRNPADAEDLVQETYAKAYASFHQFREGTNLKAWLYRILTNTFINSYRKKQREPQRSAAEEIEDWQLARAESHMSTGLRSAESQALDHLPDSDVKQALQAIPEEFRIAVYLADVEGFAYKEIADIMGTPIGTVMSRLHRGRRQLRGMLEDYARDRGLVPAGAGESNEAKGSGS
σ^R (sigma factor SigR) from Streptomyces coelicolor, residues 5-227, tagless: residues 5-227 of Q7AKG9

Key:
[1] = biological target: σR of the co-expressed, purified RsrAred.Zn2+-σR complex (Streptomyces coelicolor) (UniProt Q7AKG9); experiment: cross-linking; 5 μM purified RsrAred.Zn2+-σR complex with 2 mM BS2G-d0/d4 or BS3-d0/d4 in 20 mM Hepes pH 7.5, 50 mM NaCl, 2 mM DTT, room temperature, 30 min; quenched with 100 mM Tris pH 7.5; SDS-PAGE bands analysed by LC-MS/MS; both purified
[2] = biological target: σR (residues 5-227) (Streptomyces coelicolor) (UniProt Q7AKG9); experiment: ITC; with zinc (+), RsrA preincubated with 1 mM ZnCl2 and buffer exchanged; direct titration for weaker binding mutants (methods: 10 μM RsrA in the cell, 100 μM σR in the syringe); 35 °C, 50 mM Tris pH 7.5, 100 mM NaCl, 2 mM DTT; single binding site model; both purified
[3] = biological target: σ^R (sigma factor SigR) from Streptomyces coelicolor, residues 5-227, tagless (Streptomyces coelicolor) (UniProt Q7AKG9); experiment: tryptophan fluorescence time course after oxidation; complex (2 μM) treated with H2O2 (1-10 mM; 10 mM for RsrA* and the cysteine mutants); dissociation followed by σ^R fluorescence (ex 295 nm, em 343 nm); 25 °C, 50 mM Tris pH 7.5, 100 mM NaCl; both purified
[4] = biological target: σ^R (sigma factor SigR) from Streptomyces coelicolor, residues 5-227, tagless (Streptomyces coelicolor) (UniProt Q7AKG9); experiment: stopped-flow tryptophan fluorescence; association, pseudo-first-order, with stoichiometric zinc: σ^R 125 nM, RsrA 1.25-2.5 μM; 25 or 35 °C, 50 mM Tris pH 7.5, 100 mM NaCl, 2 mM DTT; both purified
[5] = biological target: σ^R (sigma factor SigR) from Streptomyces coelicolor, residues 5-227, tagless (Streptomyces coelicolor) (UniProt Q7AKG9); experiment: other fluorescence titration; intrinsic tryptophan emission of σ^R (excitation 295 nm, read at 343 nm); σ^R 1 μM, RsrA^red.Zn^2+ 0.1-2 μM; 25 °C, 50 mM Tris pH 7.5, 100 mM NaCl, 2 mM DTT; both purified
[6] = biological target: σ^R (sigma factor SigR) from Streptomyces coelicolor, residues 5-227, tagless (Streptomyces coelicolor) (UniProt Q7AKG9); experiment: stopped-flow tryptophan fluorescence; association, pseudo-first-order, without zinc (apo-RsrA, EDTA-treated): σ^R 125 nM, RsrA 1.25-2.5 μM; 25 or 35 °C, 50 mM Tris pH 7.5, 100 mM NaCl, 2 mM DTT; both purified

binding [1]: binds
B1: RsrA of the co-expressed, purified RsrAred.Zn2+-σR complex (protein, UniProt Q7AKG8 1-105)
chain: MSCGEPHETDCSEILDHLYEFLDKEMPDSDCVKFEHHFEECSPCLEKYGLEQAVKKLVKRCCGQDDVPGDLRAKVMGRLDLIRSGQSVPEHDVAAAPSSSAPQES

B2: RsrA* C44S (protein, UniProt Q7AKG8 1-105)
chain: B1 chain with C3A, C31A, C44S, C61A, C62A
binding [2]: no binding (tested: 10 μM in the cell, 100 μM in the syringe)

B3: RsrA* Cys41His (protein, UniProt Q7AKG8 1-105)
chain: B1 chain with C3A, C31A, C41H, C61A, C62A
binding [3]: no binding (condition: after oxidation with 10 mM H2O2)

B4: RsrA* Cys44His (protein, UniProt Q7AKG8 1-105)
chain: B1 chain with C3A, C31A, C44H, C61A, C62A
binding [3]: no binding (condition: after oxidation with 10 mM H2O2)

binding [4]: binds | binding [5]: binds | binding [6]: binds
B5: RsrA (wild type), anti-sigma factor from Streptomyces coelicolor (protein, UniProt Q7AKG8 1-105)
chain: B1 chain

B6: RsrA* (RsrA with Cys3, Cys31, Cys61 and Cys62 mutated to alanine) (protein, UniProt Q7AKG8 1-105)
chain: B1 chain with C3A, C31A, C61A, C62A
binding [3]: no binding (condition: after oxidation with 10 mM H2O2)
